In the supplement of paper PMC8728848:
The other results are listed elsewhere or left out.

Columns and labels:
Assay in all cases: glycan array binding signal (z-score within array); higher = stronger binding
Details in all cases: glycan notation: IUPAC condensed, linker removed; mutation: Q318A
Gal6S(b1-4)Glc = molecular target: Gal6S(b1-4)Glc
Outline: (§1)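 Columns mapping to the same glycan were averaged after glycan names were converted to IUPAC-condensed notation. The data come from 3228 arrays in the Consortium for Functional Glycomics database, limited to those with an available protein sequence. Binding is reported as a within-array Z-score averaged across arrays of one protein sequence and across linkers.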

Gal6S(b1-4)Glc6S = molecular target: Gal6S(b1-4)Glc6S
Outline: as §1

Gal6S(b1-4)GlcNAc = molecular target: Gal6S(b1-4)GlcNAc
Outline: as §1

Gal6S(b1-4)GlcNAc6S = molecular target: Gal6S(b1-4)GlcNAc6S
Outline: as §1

GalNAc(a1-3)Gal = molecular target: GalNAc(a1-3)Gal
Outline: as §1

GalNAc(a1-3)GalNAc = molecular target: GalNAc(a1-3)GalNAc
Outline: as §1

[1] = molecular target: GalNAc(a1-3)GalNAc(b1-3)Gal(a1-4)Gal(b1-4)Glc
Outline: as §1

[2] = molecular target: GalNAc(a1-3)GalNAc(b1-3)Gal(a1-4)Gal(b1-4)GlcNAc
Outline: as §1

GalNAc(b1-3)Gal = molecular target: GalNAc(b1-3)Gal
Outline: as §1

[3] = molecular target: GalNAc(b1-3)Gal(a1-4)Gal(b1-4)GlcNAc
Outline: as §1

[4] = molecular target: GalNAc(b1-3)Gal(a1-4)Gal(b1-4)GlcNAc(b1-3)Gal(b1-4)Glc
Outline: as §1

[5] = molecular target: GalNAc(b1-3)Gal(a1-6)Gal(b1-4)Glc
Outline: as §1

GalNAc(b1-3)GalNAc = molecular target: GalNAc(b1-3)GalNAc
Outline: as §1

GalNAc(b1-3)GlcNAc = molecular target: GalNAc(b1-3)GlcNAc
Outline: as §1

GalNAc(b1-4)Gal(b1-4)Glc = molecular target: GalNAc(b1-4)Gal(b1-4)Glc
Outline: as §1

GalNAc(b1-4)GlcNAc = molecular target: GalNAc(b1-4)GlcNAc
Outline: as §1

[6] = molecular target: GalNAc(b1-4)GlcNAc(b1-2)Man
Outline: as §1

[7] = molecular target: GalNAc(b1-4)GlcNAc(b1-2)Man(a1-3)[GalNAc(b1-4)GlcNAc(b1-2)Man(a1-6)]Man(b1-4)GlcNAc(b1-4)GlcNAc
Outline: as §1

[8] = molecular target: GalNAc(b1-4)GlcNAc(b1-3)GalNAc(b1-4)GlcNAc
Outline: as §1

GalNAc(b1-4)GlcNAc6S = molecular target: GalNAc(b1-4)GlcNAc6S
Outline: as §1

GalNAc(b1-6)GalNAc = molecular target: GalNAc(b1-6)GalNAc
Outline: as §1

GalNAc3S(b1-4)GlcNAc = molecular target: GalNAc3S(b1-4)GlcNAc
Outline: as §1

GalNAc3S(b1-4)GlcNAc3S = molecular target: GalNAc3S(b1-4)GlcNAc3S
Outline: as §1

[9] = molecular target: GalNAc3S(b1-4)[Fuc(a1-3)]GlcNAc
Outline: as §1

GalNAc4S6S(b1-4)GlcNAc = molecular target: GalNAc4S6S(b1-4)GlcNAc
Outline: as §1

GalNAc6S(b1-4)GlcNAc = molecular target: GalNAc6S(b1-4)GlcNAc
Outline: as §1

Glc(a1-4)Glc = molecular target: Glc(a1-4)Glc
Outline: as §1

[10] = molecular target: Glc(a1-4)Glc(a1-4)Glc(a1-4)Glc
Outline: as §1

Glc(a1-6)Glc(a1-6)Glc = molecular target: Glc(a1-6)Glc(a1-6)Glc
Outline: as §1

[11] = molecular target: Glc(a1-6)Glc(a1-6)Glc(a1-6)Glc
Outline: as §1

Glc(b1-4)Glc = molecular target: Glc(b1-4)Glc
Outline: as §1

Glc(b1-6)Glc = molecular target: Glc(b1-6)Glc
Outline: as §1

GlcA(b1-3)Gal = molecular target: GlcA(b1-3)Gal
Outline: as §1

GlcA(b1-3)GlcNAc = molecular target: GlcA(b1-3)GlcNAc
Outline: as §1

GlcA(b1-6)Gal = molecular target: GlcA(b1-6)Gal
Outline: as §1

[12] = molecular target: GlcA3S(b1-3)Gal(b1-4)GlcNAc(b1-2)Man
Outline: as §1

[13] = molecular target: GlcA3S(b1-3)Gal(b1-4)GlcNAc(b1-3)Gal(b1-4)Glc
Outline: as §1

B1: SUN4 (Saccharomyces cerevisiae), P53616 (protein)
chain: MGSSHHHHHHSSGLVPRGSHNGSIYGDLADFSGPYEKFEDGTIPCGQFPSGQGVIPISWLDEGGWSGVENTDTSTGGSCKEGSYCSYACQPGMSKTQWPSDQPSDGRSIGGLLCKDGYLYRSNTDTDYLCEWGVDAAYVVSELSNDVAICRTDYPGTENMVIPTYVQAGDSLPLTVVDQDTYYTWQGLKTSAAYYVNNAGISVEDACVWGSSSSGVGNWAPLNFGAGSSDGVAYLSLIPNPNNGNALNFNVKIVAADDSSTVNGECIYENGSFSGGSDGCTVSVTAGKAKFVLYN
**Q.** With B1 as the binder, how does the “glycan array binding signal (z-score)” value (Gal6S(b1-4)Glc) read?
**A.** -0.206

**Q.** What about the “glycan array binding signal (z-score)” value (Gal6S(b1-4)Glc6S) of the same binder?
**A.** -1.18

**Q.** And the “glycan array binding signal (z-score)” value (Gal6S(b1-4)GlcNAc)?
**A.** -0.239

**Q.** What about the “glycan array binding signal (z-score)” value (Gal6S(b1-4)GlcNAc6S) of the same binder?
**A.** 1.22

**Q.** And the “glycan array binding signal (z-score)” value (GalNAc(a1-3)Gal)?
**A.** 0.233

**Q.** What about the “glycan array binding signal (z-score)” value (GalNAc(a1-3)GalNAc) of the same binder?
**A.** -1.37

**Q.** What about the “glycan array binding signal (z-score)” value [1] of the same binder?
**A.** -0.695

**Q.** What about the “glycan array binding signal (z-score)” value [2] of the same binder?
**A.** 0.562

**Q.** And the “glycan array binding signal (z-score)” value (GalNAc(b1-3)Gal)?
**A.** 0.858

**Q.** What about the “glycan array binding signal (z-score)” value [3] of the same binder?
**A.** 0.305

**Q.** And the “glycan array binding signal (z-score)” value [4]?
**A.** -0.596

**Q.** And the “glycan array binding signal (z-score)” value [5]?
**A.** -1.14

**Q.** What about the “glycan array binding signal (z-score)” value (GalNAc(b1-3)GalNAc) of the same binder?
**A.** 0.446

**Q.** What about the “glycan array binding signal (z-score)” value (GalNAc(b1-3)GlcNAc) of the same binder?
**A.** -0.837

**Q.** What about the “glycan array binding signal (z-score)” value (GalNAc(b1-4)Gal(b1-4)Glc) of the same binder?
**A.** 1.66

**Q.** And the “glycan array binding signal (z-score)” value (GalNAc(b1-4)GlcNAc)?
**A.** 0.304

**Q.** What about the “glycan array binding signal (z-score)” value [6] of the same binder?
**A.** -0.117

**Q.** What about the “glycan array binding signal (z-score)” value [7] of the same binder?
**A.** 1.17

**Q.** What about the “glycan array binding signal (z-score)” value [8] of the same binder?
**A.** -1.26

**Q.** And the “glycan array binding signal (z-score)” value (GalNAc(b1-4)GlcNAc6S)?
**A.** 0.208

**Q.** And the “glycan array binding signal (z-score)” value (GalNAc(b1-6)GalNAc)?
**A.** -0.508

**Q.** And the “glycan array binding signal (z-score)” value (GalNAc3S(b1-4)GlcNAc)?
**A.** 0.499

**Q.** What about the “glycan array binding signal (z-score)” value (GalNAc3S(b1-4)GlcNAc3S) of the same binder?
**A.** 0.514

**Q.** And the “glycan array binding signal (z-score)” value [9]?
**A.** -0.017

**Q.** And the “glycan array binding signal (z-score)” value (GalNAc4S6S(b1-4)GlcNAc)?
**A.** 0.173

**Q.** What about the “glycan array binding signal (z-score)” value (GalNAc6S(b1-4)GlcNAc) of the same binder?
**A.** -0.136

**Q.** What about the “glycan array binding signal (z-score)” value (Glc(a1-4)Glc) of the same binder?
**A.** -0.008

**Q.** And the “glycan array binding signal (z-score)” value [10]?
**A.** 0.474

**Q.** And the “glycan array binding signal (z-score)” value (Glc(a1-6)Glc(a1-6)Glc)?
**A.** 0.304

**Q.** What about the “glycan array binding signal (z-score)” value [11] of the same binder?
**A.** 0.21

**Q.** What about the “glycan array binding signal (z-score)” value (Glc(b1-4)Glc) of the same binder?
**A.** 1.26

**Q.** And the “glycan array binding signal (z-score)” value (Glc(b1-6)Glc)?
**A.** -0.673

**Q.** And the “glycan array binding signal (z-score)” value (GlcA(b1-3)Gal)?
**A.** 0.144

**Q.** What about the “glycan array binding signal (z-score)” value (GlcA(b1-3)GlcNAc) of the same binder?
**A.** -0.324

**Q.** What about the “glycan array binding signal (z-score)” value (GlcA(b1-6)Gal) of the same binder?
**A.** 1.12

**Q.** What about the “glycan array binding signal (z-score)” value [12] of the same binder?
**A.** -0.145

**Q.** And the “glycan array binding signal (z-score)” value [13]?
**A.** -1.07
